The assay has as its target T1, NONO, endogenous (human (endogenous in HCT116, U2OS, rectal cancer tissue)) (UniProt Q15233).
T1 sequence: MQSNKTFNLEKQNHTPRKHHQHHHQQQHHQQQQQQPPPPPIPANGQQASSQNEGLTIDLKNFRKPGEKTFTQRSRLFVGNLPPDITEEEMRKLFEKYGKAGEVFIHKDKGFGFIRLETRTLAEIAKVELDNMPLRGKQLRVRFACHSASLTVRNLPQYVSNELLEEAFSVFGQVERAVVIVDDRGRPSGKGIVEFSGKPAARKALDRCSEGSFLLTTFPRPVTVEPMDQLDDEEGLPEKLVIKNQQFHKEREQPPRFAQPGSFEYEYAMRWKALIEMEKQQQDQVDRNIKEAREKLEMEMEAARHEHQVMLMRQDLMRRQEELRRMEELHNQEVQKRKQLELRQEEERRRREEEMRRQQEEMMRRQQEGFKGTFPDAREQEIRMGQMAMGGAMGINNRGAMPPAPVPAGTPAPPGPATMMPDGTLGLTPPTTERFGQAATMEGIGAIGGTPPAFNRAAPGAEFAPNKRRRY
Description: co-IP; cytoplasmic and nuclear proteins of HCT116 cells fractionated, then co-IP with anti-NONO antibody.

Chains of the proteins cited; added tags and fusions are not shown. Residues count along the entry.
UniProt P02545, residues 1-646: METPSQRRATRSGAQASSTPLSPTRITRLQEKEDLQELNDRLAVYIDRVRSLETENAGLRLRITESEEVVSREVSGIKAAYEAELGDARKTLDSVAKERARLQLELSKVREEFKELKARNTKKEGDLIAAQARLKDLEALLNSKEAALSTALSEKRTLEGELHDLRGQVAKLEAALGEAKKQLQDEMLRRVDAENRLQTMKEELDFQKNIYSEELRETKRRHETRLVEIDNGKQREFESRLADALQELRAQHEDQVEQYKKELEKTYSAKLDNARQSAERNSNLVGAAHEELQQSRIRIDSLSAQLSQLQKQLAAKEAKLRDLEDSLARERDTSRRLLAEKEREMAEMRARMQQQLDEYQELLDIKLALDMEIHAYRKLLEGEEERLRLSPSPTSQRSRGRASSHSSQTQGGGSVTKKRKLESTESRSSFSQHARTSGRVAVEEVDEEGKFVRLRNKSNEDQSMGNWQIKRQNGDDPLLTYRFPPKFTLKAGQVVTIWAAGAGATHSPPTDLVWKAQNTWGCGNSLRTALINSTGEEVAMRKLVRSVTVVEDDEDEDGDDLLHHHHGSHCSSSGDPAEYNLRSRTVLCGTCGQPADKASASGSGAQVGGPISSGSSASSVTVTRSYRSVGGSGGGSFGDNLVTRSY

These are yes or no findings as the source states them, for the method shown. In cells and extracts the contact can be indirect.

Consider “Lamin A/C, endogenous (from UniProt P02545 1-646)”, for which the binding entry is “no binding”.

(Values after paper PMC9381602.)
